System: sGFP::ATZ
Test: LOPAC library high-content primary screen for sGFP::ATZ accumulation in transgenic animals
Format: in vivo, C. elegans

Br.CN1[C@@H]2CC[C@H]1C[C@@H](OC(=O)C(O)c1ccccc1)C2 (mixture of isomers) [DL-homatropine hydrobromide] gave an Overall rank-order (among compounds that decreased ATZ accumulation, based on relative rank-scores) of 6 and a Rank-score (average of compound rankings by ascending B-score from two independent screens, 50 μM, 24 h, <110 decreased, >1225 increased sGFP::ATZ inclusions) of 34.5.

From patent publication US9820990B2, “Methods of treating disorders associated with protein aggregation” (University of Pittsburgh—Of the Commonwealth System of …, priority 2009, dated 2017)
